The experiment has as its target E. coli RNA polymerase β subunit (E. coli) (UniProt P0A8V2). Nature of the experiment: cryo-EM structure.

Protein sequences, listed by entry. Tags and fused reporters are not part of them.
UniProt P0A8V2: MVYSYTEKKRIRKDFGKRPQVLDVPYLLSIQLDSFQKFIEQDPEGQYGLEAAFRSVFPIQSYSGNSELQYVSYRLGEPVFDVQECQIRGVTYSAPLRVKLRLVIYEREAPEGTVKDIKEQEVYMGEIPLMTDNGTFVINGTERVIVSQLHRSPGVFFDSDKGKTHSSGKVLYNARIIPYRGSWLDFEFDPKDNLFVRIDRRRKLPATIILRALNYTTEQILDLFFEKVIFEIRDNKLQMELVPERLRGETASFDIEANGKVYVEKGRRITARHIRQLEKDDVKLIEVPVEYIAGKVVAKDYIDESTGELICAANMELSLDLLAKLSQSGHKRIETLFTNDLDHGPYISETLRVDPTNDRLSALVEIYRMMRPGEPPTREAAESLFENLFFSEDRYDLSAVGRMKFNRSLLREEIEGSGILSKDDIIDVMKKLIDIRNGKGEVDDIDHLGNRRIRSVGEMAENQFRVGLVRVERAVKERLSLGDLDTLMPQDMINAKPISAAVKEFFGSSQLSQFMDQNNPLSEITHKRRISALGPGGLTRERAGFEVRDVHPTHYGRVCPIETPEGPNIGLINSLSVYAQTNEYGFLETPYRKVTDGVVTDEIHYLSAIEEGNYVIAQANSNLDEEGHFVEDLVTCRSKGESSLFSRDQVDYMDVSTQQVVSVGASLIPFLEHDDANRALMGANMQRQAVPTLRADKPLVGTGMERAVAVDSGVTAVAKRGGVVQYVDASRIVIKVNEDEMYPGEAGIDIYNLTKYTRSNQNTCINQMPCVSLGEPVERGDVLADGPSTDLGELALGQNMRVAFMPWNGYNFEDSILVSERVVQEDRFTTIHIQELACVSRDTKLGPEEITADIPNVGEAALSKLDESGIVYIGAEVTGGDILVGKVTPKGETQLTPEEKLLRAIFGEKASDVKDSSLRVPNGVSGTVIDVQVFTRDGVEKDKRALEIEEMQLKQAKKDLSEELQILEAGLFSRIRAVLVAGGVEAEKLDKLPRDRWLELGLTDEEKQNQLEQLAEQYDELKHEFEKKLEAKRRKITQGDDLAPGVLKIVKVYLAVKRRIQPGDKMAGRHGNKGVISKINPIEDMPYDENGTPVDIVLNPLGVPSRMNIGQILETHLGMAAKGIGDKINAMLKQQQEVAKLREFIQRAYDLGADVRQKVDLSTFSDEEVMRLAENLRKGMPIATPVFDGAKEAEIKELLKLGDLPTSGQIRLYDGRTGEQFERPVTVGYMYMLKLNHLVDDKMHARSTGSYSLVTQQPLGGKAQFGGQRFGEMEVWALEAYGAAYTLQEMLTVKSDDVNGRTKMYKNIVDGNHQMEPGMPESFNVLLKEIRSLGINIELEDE
UniProt P23848: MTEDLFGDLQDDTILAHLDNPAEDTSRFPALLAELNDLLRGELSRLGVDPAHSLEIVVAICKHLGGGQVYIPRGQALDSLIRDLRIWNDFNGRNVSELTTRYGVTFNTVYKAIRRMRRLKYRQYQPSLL

The record followed here is paper doi:10.1101/2025.05.02.651988 (bioRxiv, 2025).

These are yes or no findings as the source states them, for the method shown.

As for “phage Mu middle operon regulator Mor (from UniProt P23848 1-129)”, the binding entry is reported as “no binding”.
